# Assay results as given in US20130123319A1, “Medthod of Treating a systemic inflammatory disorder and damaged internal tissues” (priority 2011, published 2013).
# For at least one compound, name, drawing or mass did not settle the structure.
# Test system: Chronic Inflammatory Demyelinating Polyneuropathy (CIDP)
# Assay: Case report: patient with Chronic Inflammatory Demyelinating Polyneuropathy (CIDP)
# Assay type: in vivo, human
# Conditions: January 2002, 100 mg IV daily for 3 weeks
structure (smiles),measurement,value
C[C@H]1C[C@@H]2[C@H]([C@@H](O)C[C@@]3(C)[C@H]2CC[C@]3(O)C(=O)CO)[C@@]2(C)C=CC(=O)C=C12 [Methylprednisolone],response of CIDP,improved
